Source: US20210277399A1, “Methods of Imaging and Tracking Nucleic Acids in Cells” (Emory University, priority 2020, published 2021)

Tests used:
Neuro-2a cells = assay: Live cell imaging of mRNA in stress granules; assay type: cell-based, Mouse; conditions: after arsenite exposure
Description: Experiments were performed to determine whether the MGD2/MGA system would be suitable for live cell imaging of endogenous mRNA localization and dynamics. Moreover, experiments were performed to determine whether one could simultaneously track the real-time localization properties of both RNA and proteins within a living cell. For this assay, Neuro-2a cells were co-transfected with expression plasmids for 1×MGA-mCDK6 and dual GFP-tagged G3BP1 protein. The expressed mRNA was labeled with MGD2 and photo crosslinked. The cells were then imaged to record the spatiotemporal features of both mRNA and protein in stress granules. […] Monitoring the signal intensity, the fluorescent signal generated from the MGD2 labeled granules was observed and remained consistent over >25 min of imaging.
After observing the motility and maturation of the granules, experiments were performed to determine whether one could also observe their dissolution. In mammalian cells, stress granules disassemble in the presence of small aliphatic molecules that disrupt weak hydrophobic interactions. Therefore, 1,6-hexanediol, an aliphatic alcohol commonly used for disassembly of stress granules was added. After arsenite-induced stress granule formation, the cells were incubated in 5% 1,6-hexanediol solution. The fluorescence signal of the labeled 1×MGA-mCDK6 was observed. […]

[1] = test system: control GFP mRNA lacking MGA; assay: Labeling specificity by denaturing PAGE analysis; assay type: biochemical

Molecule	imaging time after which signal showed a sharp decrease (Neuro-2a cells; GFP signal)	irradiation time after which non-specific labeling of the control mRNA was observed ([1]; 30 μM MGD2, 4 μM control mRNA)	irradiation time after which non-specific labeling of the control mRNA was observed ([1]; 100 μM MGD2, 4 μM control mRNA)	imaging time over which fluorescent signal remained consistent (Neuro-2a cells; MGD2 labeled 1×MGA-mCDK6 granules)
GFP-tagged G3BP1: dual GFP-tagged G3BP1 protein, stress granule marker co-expressed for comparison	17 min			
CN(C)c1ccc(C(=C2C=CC(=[N+](C)C)C=C2)c2ccc(NC(=O)CCC3(C)N=N3)cc2)cc1 [MGD2, N-(4-((4-(dimethylamino)phenyl)(4-(3-(3-methyl-3H-diazirin-3-yl) Propan amido)phenyl)methylene)cyclohexa-2,5-dien-1-ylidene)-N-methylmethanaminium Chloride]		15 min	10 min	> 25 min
